Measurements taken from paper doi:10.1101/2020.11.16.384750.

Chains of the proteins cited; added tags and fusions are not shown.
UniProt Q16539: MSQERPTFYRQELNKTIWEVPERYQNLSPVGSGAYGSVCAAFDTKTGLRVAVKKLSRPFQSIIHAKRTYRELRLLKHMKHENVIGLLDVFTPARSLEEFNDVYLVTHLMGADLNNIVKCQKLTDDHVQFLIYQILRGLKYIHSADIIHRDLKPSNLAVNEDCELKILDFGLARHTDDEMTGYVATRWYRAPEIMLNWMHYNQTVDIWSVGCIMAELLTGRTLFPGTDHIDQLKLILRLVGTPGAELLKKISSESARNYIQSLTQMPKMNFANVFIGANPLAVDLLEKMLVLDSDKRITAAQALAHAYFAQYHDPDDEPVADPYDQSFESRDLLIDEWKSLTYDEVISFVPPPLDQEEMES
UniProt Q01167: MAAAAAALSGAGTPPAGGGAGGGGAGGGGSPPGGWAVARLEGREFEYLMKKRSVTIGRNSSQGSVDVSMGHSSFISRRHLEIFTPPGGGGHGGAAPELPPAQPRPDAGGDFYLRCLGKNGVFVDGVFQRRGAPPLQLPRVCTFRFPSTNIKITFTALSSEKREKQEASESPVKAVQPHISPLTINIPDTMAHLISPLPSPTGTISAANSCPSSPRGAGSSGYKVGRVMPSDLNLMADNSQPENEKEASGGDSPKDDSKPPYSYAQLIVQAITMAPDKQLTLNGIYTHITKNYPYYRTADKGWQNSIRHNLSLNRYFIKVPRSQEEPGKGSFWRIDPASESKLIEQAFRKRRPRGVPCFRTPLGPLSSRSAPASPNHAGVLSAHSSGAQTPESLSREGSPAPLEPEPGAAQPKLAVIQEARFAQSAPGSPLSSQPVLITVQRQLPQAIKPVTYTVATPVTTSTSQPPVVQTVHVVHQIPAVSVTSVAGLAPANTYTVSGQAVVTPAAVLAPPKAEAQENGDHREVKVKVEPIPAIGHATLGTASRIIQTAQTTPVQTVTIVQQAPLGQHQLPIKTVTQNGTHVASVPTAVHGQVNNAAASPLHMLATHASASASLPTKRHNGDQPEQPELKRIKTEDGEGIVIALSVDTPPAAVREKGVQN
UniProt Q8IW41: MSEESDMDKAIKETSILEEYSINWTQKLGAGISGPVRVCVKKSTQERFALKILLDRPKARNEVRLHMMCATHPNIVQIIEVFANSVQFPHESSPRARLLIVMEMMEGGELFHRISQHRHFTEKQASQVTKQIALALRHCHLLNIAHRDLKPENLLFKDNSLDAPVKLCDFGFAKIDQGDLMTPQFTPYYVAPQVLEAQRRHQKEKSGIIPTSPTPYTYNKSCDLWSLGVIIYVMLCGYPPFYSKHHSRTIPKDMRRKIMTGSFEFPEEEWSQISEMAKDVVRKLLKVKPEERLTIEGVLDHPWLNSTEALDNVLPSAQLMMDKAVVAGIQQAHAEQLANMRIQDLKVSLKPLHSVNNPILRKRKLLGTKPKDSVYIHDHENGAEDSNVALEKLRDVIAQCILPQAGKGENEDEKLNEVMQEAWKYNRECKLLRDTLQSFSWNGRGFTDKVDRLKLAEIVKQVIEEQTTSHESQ
UniProt Q9UHD2: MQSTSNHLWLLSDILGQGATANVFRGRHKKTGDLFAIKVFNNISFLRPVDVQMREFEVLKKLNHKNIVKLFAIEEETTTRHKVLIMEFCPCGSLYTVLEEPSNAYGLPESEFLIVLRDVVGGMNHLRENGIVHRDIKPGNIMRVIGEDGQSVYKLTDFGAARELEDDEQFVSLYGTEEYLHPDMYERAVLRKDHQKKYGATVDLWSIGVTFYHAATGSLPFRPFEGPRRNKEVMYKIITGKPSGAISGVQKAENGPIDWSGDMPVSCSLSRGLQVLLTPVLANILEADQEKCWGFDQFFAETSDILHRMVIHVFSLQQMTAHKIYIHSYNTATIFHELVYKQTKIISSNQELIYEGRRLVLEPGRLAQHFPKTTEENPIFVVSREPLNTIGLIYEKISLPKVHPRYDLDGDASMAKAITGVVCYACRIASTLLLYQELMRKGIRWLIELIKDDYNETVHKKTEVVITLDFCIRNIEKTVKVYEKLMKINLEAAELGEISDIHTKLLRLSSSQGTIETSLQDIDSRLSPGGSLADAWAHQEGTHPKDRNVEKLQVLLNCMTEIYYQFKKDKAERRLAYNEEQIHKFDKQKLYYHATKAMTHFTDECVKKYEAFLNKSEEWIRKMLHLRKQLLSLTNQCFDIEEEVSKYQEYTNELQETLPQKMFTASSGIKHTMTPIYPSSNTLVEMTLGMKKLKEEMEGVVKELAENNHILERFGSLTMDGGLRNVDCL

Columns and labels:
Experiment in all cases: affinity purification with mass spectrometry
[1] = target: T1, MAP3K7 (TAK1), C-terminal His-GSG-Flag tagged bait (UniProt O43318)
T1 sequence: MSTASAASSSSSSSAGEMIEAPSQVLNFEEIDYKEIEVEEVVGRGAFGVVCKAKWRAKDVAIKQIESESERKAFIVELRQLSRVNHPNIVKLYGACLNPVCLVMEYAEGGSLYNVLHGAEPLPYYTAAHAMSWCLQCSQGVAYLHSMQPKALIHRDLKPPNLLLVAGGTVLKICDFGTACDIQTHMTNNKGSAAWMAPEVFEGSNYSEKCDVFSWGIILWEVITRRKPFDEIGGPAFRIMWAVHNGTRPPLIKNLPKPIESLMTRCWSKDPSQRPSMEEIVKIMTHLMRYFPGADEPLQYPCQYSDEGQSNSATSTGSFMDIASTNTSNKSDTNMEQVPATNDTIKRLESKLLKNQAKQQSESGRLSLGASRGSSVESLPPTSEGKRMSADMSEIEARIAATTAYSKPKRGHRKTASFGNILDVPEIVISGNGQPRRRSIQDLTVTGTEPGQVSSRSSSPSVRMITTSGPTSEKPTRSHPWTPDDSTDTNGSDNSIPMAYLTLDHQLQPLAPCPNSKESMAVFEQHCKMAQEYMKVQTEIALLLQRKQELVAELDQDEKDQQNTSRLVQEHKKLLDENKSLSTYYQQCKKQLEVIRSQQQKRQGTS

[2] = target: MAPK14 (p38 kinase), C-terminal His-GSG-Flag tagged bait (UniProt Q16539)
[3] = target: T2, TRAF2, C-terminal His-GSG-Flag tagged bait (wild type) (UniProt Q12933)
T2 sequence: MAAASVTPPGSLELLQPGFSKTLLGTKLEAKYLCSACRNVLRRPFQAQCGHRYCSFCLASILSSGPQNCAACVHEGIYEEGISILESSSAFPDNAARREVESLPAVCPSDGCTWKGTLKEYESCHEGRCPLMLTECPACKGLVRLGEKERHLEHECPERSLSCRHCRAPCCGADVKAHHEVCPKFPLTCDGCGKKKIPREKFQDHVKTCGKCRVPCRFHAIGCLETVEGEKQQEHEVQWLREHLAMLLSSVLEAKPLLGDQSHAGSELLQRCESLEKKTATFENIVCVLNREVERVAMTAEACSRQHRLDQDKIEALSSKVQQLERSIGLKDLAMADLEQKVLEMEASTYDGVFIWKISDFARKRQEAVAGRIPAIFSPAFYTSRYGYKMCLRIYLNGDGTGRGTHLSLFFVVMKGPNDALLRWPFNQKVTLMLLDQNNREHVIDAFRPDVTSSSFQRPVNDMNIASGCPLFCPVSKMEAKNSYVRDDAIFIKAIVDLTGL

With FOXK2 (from UniProt Q01167 1-660) as the substance, how does the binding [1] read?
Its binding is “binds”.

For “MAPKAPK5 (from UniProt Q8IW41 1-473) (enzyme)”, which binding [2] is on record?
Its binding is “binds”.

“serine/threonine-protein kinase TBK1 (from UniProt Q9UHD2 1-729)” was tested. Which binding [3] did it give?
The binding was “binds”.

These are yes or no findings as the source states them, for the method shown. Binding seen in cells or lysates may run through a third protein. A yes stands for co-enrichment or nearness to the bait. Other partners may have been found. For part of these data: Tags and fused reporters may be left off the sequences shown.
